PubChem BioAssay AID1259425 – University of Nebraska Medical Center – 2018
Screen: 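Seek colon cancer weak points whose silencing resembles KSR1 loss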 (primary screen). System: HCT116 human colon cancer cells. Reagents: siRNA pool against human genes, 50 nM siRNA. Read-out: 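After 50 nM siRNA pool, branched-DNA assay measures six marker transcripts per well, minus blank, normalised to the geometric mean of two housekeeping transcripts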. Reading the numbers: BNIP3L mRNA: higher = more BNIP3L transcript after knockdown; NDRG1 mRNA: higher = more NDRG1 transcript after knockdown; BNIP3 mRNA: higher = more BNIP3 transcript after knockdown; ALDOC mRNA: higher = more ALDOC transcript after knockdown; ACSL5 mRNA: higher = more ACSL5 transcript after knockdown.
The deposit covers about 14,000 reagents; below is a random part of them. No sequences are given here. Not given: the time to read-out.

no.	gene	BNIP3L mRNA, set 1	NDRG1 mRNA, set 1	BNIP3 mRNA, set 1	ALDOC mRNA, set 1	ACSL5 mRNA, set 1
1	STAM2	0.118	0.0863	0.297	0.0258	0.236
2	DOP1A	0.131	0.428	0.276	0.0127	0.142
3	RIF1	0.178	0.402	0.562	0.0521	0.275
4	CREB3L2	0.0563	0.358	0.321	0.0208	0.189
5	SOCS7	0.0889	0.059	0.187	0.0181	0.219
6	TTF1	0.093	0.296	0.256	0.0089	0.234
7	CPB1	0.214	0.203	0.947	0.034	0.125
8	KAT5	0.107	0.232	0.359	0.0553	0.688
9	FBXW11	0.0609	0.0858	0.272	0.0532	0.132
10	SPTLC3	0.112	0.373	0.283	0.0174	0.206
11	POU3F2	0.373	0.206	0.282	0.00987	0.193
12	TNNI2	0.124	0.16	0.271	0.0118	0.171
13	CEP63	0.144	0.474	0.294	0.0309	0.234
14	RGS19	0.228	0.19	0.324	0.0406	0.121
15	NUDT18	0.163	0.105	0.298	0.107	0.321
16	DEFB103B	0.0855	0.117	0.287	0.0203	0.234
17	IARS1	0.259	1.12	0.462	0.0285	0.312
18	TMCC2	0.109	0.25	0.349	0.0213	0.102

Copied from the listing (6 entries):
no.	gene	BNIP3L mRNA, set 1	NDRG1 mRNA, set 1	BNIP3 mRNA, set 1	ALDOC mRNA, set 1	ACSL5 mRNA, set 1
13	CEP63	0.144	0.474	0.294	0.0309	0.234
14	RGS19	0.228	0.19	0.324	0.0406	0.121
15	NUDT18	0.163	0.105	0.298	0.107	0.321
16	DEFB103B	0.0855	0.117	0.287	0.0203	0.234
17	IARS1	0.259	1.12	0.462	0.0285	0.312
18	TMCC2	0.109	0.25	0.349	0.0213	0.102

More entries:
no.	gene	BNIP3L mRNA, set 1	NDRG1 mRNA, set 1	BNIP3 mRNA, set 1	ALDOC mRNA, set 1	ACSL5 mRNA, set 1
19	GUF1	0.171	0.0779	0.3	0.037	0.164
20	PLOD3	0.267	1.79	0.594	0.0812	0.543
21	DNAH9	0.106	0.398	0.275	0.0161	0.126
22	FGFR1	0.26	0.314	0.437	0.0175	0.519
23	SH3BP1	0.0947	0.619	0.447	0.0312	0.401
24	ME1	0.0586	0.0917	0.296	0.0164	0.133
25	SENP1	0.063	0.102	0.273	0.0261	0.112
26	SNURF	0.0891	0.309	0.363	0.0246	0.252
27	ELMOD3	0.116	0.56	0.361	0.0495	0.241
28	CFAP300	0.117	0.169	0.223	0.066	0.194
29	ELP2	0.0865	0.254	0.349	0.0234	0.135
30	LIPE	0.168	0.187	0.342	0.0347	0.0796
31	IFT22	0.119	0.623	0.357	0.0138	0.276
32	TALDO1	0.0753	0.188	0.272	0.022	0.179
33	SUMO3	0.0976	0.151	0.429	0.0402	0.276
34	FAM117A	0.261	0.0917	0.431	0.0594	0.0641
35	CFAP74	0.106	0.248	0.169	0.0338	0.274
36	FAIM2	0.0869	0.248	0.304	0.0174	0.246
37	UBA7	0.0681	0.102	0.305	0.0193	0.156
38	NOS1	0.116	0.111	0.199	0.012	0.119
39	OR1D4	0.236	0.372	0.31	0.0743	0.2
40	XAF1	0.113	0.0967	0.358	0.0101	0.151
41	NUDT22	0.142	0.462	0.343	0.0478	0.371
42	DRD3	0.0488	0.133	0.201	0.0126	0.153
43	PHF5A	0.124	0.67	0.205	0.0725	0.117
44	GADD45G	0.114	0.237	0.29	0.0161	0.132
45	JADE1	0.09	0.283	0.347	0.0641	0.191
46	SLC7A11	0.0483	0.181	0.182	0.0139	0.238
47	SPRYD7	0.0844	0.189	0.401	0.0204	0.136
48	EEFSEC	0.0753	0.116	0.281	0.0196	0.188
49	ATG5	0.0972	0.177	0.25	0.0409	0.13
50	BTNL3	0.0798	0.171	0.217	0.0181	0.228
